PubChem BioAssay AID743121 – NCATS, 2013
Here is one part, drawn at random, of about 26,000 reagents tested. 167 of them (0.63%) were called active. 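Calls are per gene from RSA p-values that are not deposited; an individual active-marked siRNA can sensitise only weakly.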 Unmarked entries are inactive. The numbers tell different reagents against one gene apart. Not all columns of the deposit are shown.

- Aim: 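Knock-downs that sensitise breast cancer cells to camptothecin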 (primary screen)
- System: MDA-MB-231 cells, a human breast cancer line
- Knock-down reagent: single siRNA against human genes, 20 nM siRNA (0.8 pmol per well)
- Timing: 120 h (drug added 48 h after transfection, read 72 h later)
- Treatment: camptothecin 20 nM (about EC30) for 72 h; vehicle 0.1% DMSO in parallel plates
- Measured: 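CellTiter-Glo ATP signal, scaled to control siRNA as percent viability; sensitisation given as log2 of untreated divided by camptothecin-treated viability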
- Reading the numbers: log2 vehicle/camptothecin viability: higher = stronger sensitisation to camptothecin
- Active means: 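Active genes have an RSA gene-level p-value below 0.001, computed from the ratios of their separate siRNAs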

SETD1A (GeneID 9739) #1 scored log2 vehicle/camptothecin viability 0.243.
SETD1A (GeneID 9739) #2 showed log2 vehicle/camptothecin viability -0.101.
With knock-down of SETD1A (GeneID 9739) #3 the results were log2 vehicle/camptothecin viability -0.202.
SETD1A (GeneID 9739) #4 scored log2 vehicle/camptothecin viability 1.03.
Against TWIST1 (GeneID 7291) #1, the values are log2 vehicle/camptothecin viability -0.0117.
TWIST1 (GeneID 7291) #2 gave log2 vehicle/camptothecin viability 0.323.
Depletion of TWIST1 (GeneID 7291) #3 resulted in: log2 vehicle/camptothecin viability 0.082.
After knock-down of TWIST1 (GeneID 7291) #4, the screen gave log2 vehicle/camptothecin viability 0.751.
RNF220 (GeneID 55182) #1 gave log2 vehicle/camptothecin viability -0.358.
Against RNF220 (GeneID 55182) #2, the entry reads log2 vehicle/camptothecin viability -0.757.
With knock-down of RNF220 (GeneID 55182) #3, the record shows log2 vehicle/camptothecin viability -0.315.
Depletion of APOB (GeneID 338) #1 resulted in: log2 vehicle/camptothecin viability -0.145.
APOB (GeneID 338) #2 showed log2 vehicle/camptothecin viability -0.0219.
Depletion of APOB (GeneID 338) #3 came out at: log2 vehicle/camptothecin viability -0.575.
Against APOB (GeneID 338) #4, the values are log2 vehicle/camptothecin viability -0.316.
For ISG15 (GeneID 9636) #1, the values are log2 vehicle/camptothecin viability -0.0841.
With knock-down of ISG15 (GeneID 9636) #2, the record shows log2 vehicle/camptothecin viability 0.0878.
With knock-down of ISG15 (GeneID 9636) #3 the results were log2 vehicle/camptothecin viability -0.0133.
After knock-down of ISG15 (GeneID 9636) #4, the screen gave log2 vehicle/camptothecin viability -0.409.
Knock-down of CHRNA5 (GeneID 1138) #1 came out at: log2 vehicle/camptothecin viability 0.0102.
Against CHRNA5 (GeneID 1138) #2, the entry reads log2 vehicle/camptothecin viability -0.148.
Depletion of CHRNA5 (GeneID 1138) #3 gave: log2 vehicle/camptothecin viability -0.242.
After knock-down of CHRNA5 (GeneID 1138) #4 the results were log2 vehicle/camptothecin viability -0.525.

3 entries from above in another layout.
{"gene":"TWIST1 (GeneID 7291)","siRNA no.":2,"log2 vehicle/camptothecin viability":0.323}
{"gene":"TWIST1 (GeneID 7291)","siRNA no.":3,"log2 vehicle/camptothecin viability":0.082}
{"gene":"TWIST1 (GeneID 7291)","siRNA no.":4,"log2 vehicle/camptothecin viability":0.751}

Further records follow.
Against FIRRM (GeneID 55732) #1 the deposit lists log2 vehicle/camptothecin viability -0.126.
Against FIRRM (GeneID 55732) #2 the deposit lists log2 vehicle/camptothecin viability -0.118.
FIRRM (GeneID 55732) #3 showed log2 vehicle/camptothecin viability -0.574.
After knock-down of FIRRM (GeneID 55732) #4, the record shows log2 vehicle/camptothecin viability -0.192.
With knock-down of CYP2R1 (GeneID 120227) #1, the record shows log2 vehicle/camptothecin viability -0.167.
For CYP2R1 (GeneID 120227) #2, the values are log2 vehicle/camptothecin viability 0.
After knock-down of CYP2R1 (GeneID 120227) #3, the record shows log2 vehicle/camptothecin viability -0.246.
For CYP2R1 (GeneID 120227) #4, the entry reads log2 vehicle/camptothecin viability -0.0667.
Depletion of IL16 (GeneID 3603) #1 came out at: log2 vehicle/camptothecin viability 0.161.
After knock-down of IL16 (GeneID 3603) #2 the results were log2 vehicle/camptothecin viability -0.098.
For IL16 (GeneID 3603) #3 the deposit lists log2 vehicle/camptothecin viability -0.0413.
OR4C11 (GeneID 219429) #1 scored log2 vehicle/camptothecin viability -0.122.
OR4C11 (GeneID 219429) #2 gave log2 vehicle/camptothecin viability -0.421.
After knock-down of OR4C11 (GeneID 219429) #3, the record shows log2 vehicle/camptothecin viability -0.142.
OR4C11 (GeneID 219429) #4 gave log2 vehicle/camptothecin viability -0.187.
